# Reference: PubChem BioAssay (NCATS)
# This list was built around the results that the source calls inconclusive (neither active nor inactive); the mix of calls is not that of the screen. A potency beside an inconclusive call is a rough fit, not a confirmed value. Activity calls are given as the source filed them. Calls follow the shape of the dose curve; as a rule, active = well fitted cell-killing curve with a large enough effect; inconclusive = small, poorly fitted or top-dose-only effect, or effect the other way; inactive = no such curve, though single readings can be large or run the other way.
# Experiment: Quantitative High-Throughput drug screen in 47 multiple myeloma cell lines against the NCATS MIPE library collection: VP6_DJ cell viability assay (AID 1919867); also: nearly all actives have a fitted effect of over 40% in size
# Details: ATP luminescence, 48 h; series mostly up to 45.8 µM
# Summary of the method: (§1)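 500 cells/well per myeloma line exposed to pinned MIPE 4.0 compounds for 48 h at 37 °C, 5% CO2. Viability read as ATP by CellTiter-Glo luminescence, normalised to DMSO-only (100%) and media-only (0%) wells.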
# Potency is read from the fitted curve at half-maximal effect.
row,Compound,Potency
1,Cc1cc(C(C)(C)C)c(O)c(C)c1CC1=NCCN1,inactive
2,O=C1NC(=O)C(c2ccccc2[N+](=O)[O-])=C1Nc1ccc(O)c(Cl)c1,"inconclusive: 23.5 µM [cytotoxic, partial curve, poor fit]"
3,CCCCCCCCOc1ccccc1C(=O)Nc1ccc(C(=O)OCC[N+](C)(CC)CC)cc1,"inconclusive: 13.2 µM [cytotoxic, partial curve, poor fit]"
4,Cc1c(NC(=O)c2ccc(C(C)(C)C)cc2)cccc1-c1cn(C)c(=O)c(Nc2ccc(C(=O)N3CCOCC3)cc2)n1,"inconclusive: 20.9 µM [cytotoxic, partial curve, poor fit]"
5,Cc1oncc1C(=O)Nc1ccc(C(F)(F)F)cc1,"inconclusive: 5.9 µM [cytotoxic, full curve, poor fit]"
6,Clc1ccc2nsnc2c1NC1=NCCN1,inactive
7,COc1cc2c(cc1OC)CN(CCc1ccc(NC(=O)c3cc(OC)c(OC)cc3NC(=O)c3cnc4ccccc4c3)cc1)CC2,"inconclusive: 26.4 µM [cytotoxic, single point]"
8,CC(C)OC(=O)CCCC=CC[C@@H]1[C@H](C=C[C@@H](O)COc2cccc(C(F)(F)F)c2)[C@H](O)C[C@@H]1O,"inconclusive: 18.7 µM [cytotoxic, partial curve, poor fit]"
9,CC(C)c1ccc2oc3nc(N)c(C(=O)O)cc3c(=O)c2c1,"inconclusive: 14.8 µM [cytotoxic, partial curve, poor fit]"
10,O=C(O)c1cc(O)c2c(c1)C(=O)c1cccc(O)c1C2=O,inactive
11,C[N+]1(C)[C@@H]2C[C@@H](OC(=O)C(O)(c3cccs3)c3cccs3)C[C@H]1[C@@H]1O[C@@H]12,"inconclusive: 3.72 µM [cytotoxic, partial curve, poor fit]"
12,C[C@H](NC(=O)[C@@H](O)c1cc(F)cc(F)c1)C(=O)N[C@@H]1C(=O)N(C)c2ccccc2-c2ccccc21,"inconclusive: 0.166 µM [cytotoxic, full curve, poor fit]"
13,O=C(Nc1ccccc1)Nc1ccc(-c2ccc(C(=O)[C@H]3CCC[C@H]3C(=O)O)cc2)cc1,inactive
14,CC(=Cc1ccccc1)C=C1SC(=S)N(CC(=O)O)C1=O,inactive
15,CO[C@H]1C=CC=C(C)C(=O)NC2=CC(=O)C(NCCN(C)C)=C(C[C@@H](C)C[C@H](OC)[C@@H](O)[C@@H](C)C=C(C)[C@@H]1OC(N)=O)C2=O,active: 0.0093 µM
16,CN(C)c1ccc2nc3ccc(=[N+](C)C)cc-3sc2c1,active: 1.32 µM
17,NC1CCC(Nc2nc(Nc3ccc(C(=O)N4CCCCC4)cc3)c3ncn(-c4cccc(F)c4)c3n2)CC1 (stereo not drawn),"inconclusive: 11.8 µM [cytotoxic, single point]"
18,O=C(NOCC1CC1)c1ccc(F)c(F)c1Nc1ccc(I)cc1Cl,active: 4.69 µM
19,Cc1ccc(F)c(NC(=O)Nc2ccc(-c3cccc4[nH]nc(N)c34)cc2)c1,active: 16.6 µM
20,COc1ccc(-c2oc3cc(OC)ccc3c2C(=O)c2ccc(C#N)cc2)cc1,"inconclusive: 8.33 µM [cytotoxic, full curve, poor fit]"
21,OC(CN1CCC(Cc2ccc(F)cc2)CC1)c1ccc(Cl)cc1 (stereo not drawn),"inconclusive: 14.8 µM [cytotoxic, partial curve, poor fit]"
22,Cc1ccc(C(=O)Nc2cccc(C(F)(F)F)c2)cc1Nc1nc(-c2cccnc2)nc2c1cnn2C,"inconclusive: 11.8 µM [cytotoxic, partial curve, poor fit]"
23,O=C1CCCC2=C1C(c1[nH]ncc1Cl)N=C(Nc1nc3ccccc3o1)N2 (stereo not drawn),active: 0.0935 µM
24,CON=C(C(=O)N[C@@H]1C(=O)N2C(C(=O)OCOC(=O)C(C)(C)C)=C(C=Cc3scnc3C)CS[C@H]12)c1csc(N)n1,"inconclusive: 20.9 µM [cytotoxic, single point]"
25,Cc1ccc2nc(NCCN)c3ncc(C)n3c2c1,active: 5.26 µM
26,O=C(NCC1CCCCN1)c1cc(OCC(F)(F)F)ccc1OCC(F)(F)F (stereo not drawn),active: 3.72 µM
27,CNS(=O)(=O)CCc1ccc2[nH]cc(C3CCN(C)CC3)c2c1,"inconclusive: 2.64 µM [cytotoxic, full curve]"
28,Nc1nccc(Oc2ccc(NC(=O)c3c[nH]cc(-c4ccc(F)cc4)c3=O)cc2F)c1Cl,active: 16.6 µM

# Experiment: Quantitative High-Throughput drug screen in 47 multiple myeloma cell lines against the NCATS MIPE library collection: UTMC2_PLB cell viability assay (AID 1919868); also: nearly all actives have a fitted effect of over 55% in size
# Details: CellTiter-Glo ATP luminescence, 48 h; series mostly up to 45.8 µM
# Summary of the method: as §1
row,Compound,Potency
1,O=C(O)c1cccc(-c2noc(-c3ccccc3F)n2)c1,"inconclusive: 0.743 µM [rising, full curve, poor fit]"
2,CCCCc1oc2ccccc2c1C(=O)c1cc(I)c(OCCN(CC)CC)c(I)c1,"inconclusive: 20.9 µM [cytotoxic, partial curve, poor fit]"
3,Cc1nc(NC(=O)N2CCC[C@@H]2C(N)=O)sc1-c1ccnc(C(C)(C)C(F)(F)F)c1,"inconclusive: 2.35 µM [cytotoxic, partial curve, poor fit]"
4,Cc1cc(C(C)(C)C)c(O)c(C)c1CC1=NCCN1,"inconclusive: 0.118 µM [rising, full curve, poor fit]"
5,O=C1NC(=O)C(c2ccccc2[N+](=O)[O-])=C1Nc1ccc(O)c(Cl)c1,inactive
6,CCCCCCCCOc1ccccc1C(=O)Nc1ccc(C(=O)OCC[N+](C)(CC)CC)cc1,active: 16.6 µM
7,Cc1c(NC(=O)c2ccc(C(C)(C)C)cc2)cccc1-c1cn(C)c(=O)c(Nc2ccc(C(=O)N3CCOCC3)cc2)n1,"inconclusive: 20.9 µM [cytotoxic, partial curve, poor fit]"
8,Cc1oncc1C(=O)Nc1ccc(C(F)(F)F)cc1,inactive
9,Clc1ccc2nsnc2c1NC1=NCCN1,inactive
10,COc1cc2c(cc1OC)CN(CCc1ccc(NC(=O)c3cc(OC)c(OC)cc3NC(=O)c3cnc4ccccc4c3)cc1)CC2,"inconclusive: 18.7 µM [cytotoxic, partial curve, poor fit]"
11,CC(C)OC(=O)CCCC=CC[C@@H]1[C@H](C=C[C@@H](O)COc2cccc(C(F)(F)F)c2)[C@H](O)C[C@@H]1O,active: 16.6 µM
12,CC(C)c1ccc2oc3nc(N)c(C(=O)O)cc3c(=O)c2c1,"inconclusive: 18.7 µM [cytotoxic, partial curve, poor fit]"
13,O=C(O)c1cc(O)c2c(c1)C(=O)c1cccc(O)c1C2=O,"inconclusive: 10.8 µM [cytotoxic, partial curve, poor fit]"
14,C[N+]1(C)[C@@H]2C[C@@H](OC(=O)C(O)(c3cccs3)c3cccs3)C[C@H]1[C@@H]1O[C@@H]12,inactive
15,C[C@H](NC(=O)[C@@H](O)c1cc(F)cc(F)c1)C(=O)N[C@@H]1C(=O)N(C)c2ccccc2-c2ccccc21,"inconclusive: 0.0418 µM [rising, full curve, poor fit]"
16,O=C(Nc1ccccc1)Nc1ccc(-c2ccc(C(=O)[C@H]3CCC[C@H]3C(=O)O)cc2)cc1,"inconclusive: 0.003 µM [rising, full curve, poor fit]"
17,NC1CCC(Nc2nc(Nc3ccc(C(=O)N4CCCCC4)cc3)c3ncn(-c4cccc(F)c4)c3n2)CC1 (stereo not drawn),"inconclusive: 0.0012 µM [cytotoxic, full curve, poor fit]"
18,O=C(NOCC1CC1)c1ccc(F)c(F)c1Nc1ccc(I)cc1Cl,active: 13.2 µM
19,Cc1ccc(F)c(NC(=O)Nc2ccc(-c3cccc4[nH]nc(N)c34)cc2)c1,active: 8.33 µM
20,COc1ccc(-c2oc3cc(OC)ccc3c2C(=O)c2ccc(C#N)cc2)cc1,"inconclusive: 10.5 µM [rising, partial curve, poor fit]"
21,Cc1ccc(C(=O)Nc2cccc(C(F)(F)F)c2)cc1Nc1nc(-c2cccnc2)nc2c1cnn2C,active: 11.8 µM
22,O=C1CCCC2=C1C(c1[nH]ncc1Cl)N=C(Nc1nc3ccccc3o1)N2 (stereo not drawn),"inconclusive: 0.0418 µM [cytotoxic, full curve, poor fit]"
23,CON=C(C(=O)N[C@@H]1C(=O)N2C(C(=O)OCOC(=O)C(C)(C)C)=C(C=Cc3scnc3C)CS[C@H]12)c1csc(N)n1,"inconclusive: 23.5 µM [cytotoxic, partial curve, poor fit]"
24,Cc1ccc2nc(NCCN)c3ncc(C)n3c2c1,active: 4.69 µM
25,Nc1nccc(Oc2ccc(NC(=O)c3c[nH]cc(-c4ccc(F)cc4)c3=O)cc2F)c1Cl,active: 29.6 µM
